# Measurements taken from patent publication US6465479B1, “Pyridomorphinans and use thereof” (Southern Research Institute, priority 1999, dated 2002).
# System: male ICR mice
# Test: Acetic acid writhing assay, antinociception, tolerance and antagonist pretreatment
# Format: in vivo, mouse
# Settings: for Tolerance Shift i.p.: repeated/control A50, i.p.
# Description: In the following examples, male ICR mice(20-30 grams) were used. […] The solution was brought up to approximately pH 5.5 with 1.74 M NaOH and then the final volume adjusted with distilled water. […] Additional compounds used in these studies were dissolved in distilled water (i.c.v. injections) or physiological saline (i.p. injections).
# Antinociception was assessed using either the 55° C. warm-water tail-flick test or the acetic-acid writhing assay. […] Each mouse was first tested for baseline latency by immersing its tail in the water and recording the time to response. Mice not responding within 5 sec were excluded from further testing. Mice were then administered the test compound and tested for antinociception at 10, 20, 30, 45, 60 and 90 min post-injection. A maximum score was assigned (100%) to animals not responding within 15 sec to avoid tissue damage. Antinociception was calculated by the following formula: % antinociception=100×(test latency-control latency)/(15-control latency). For the acetic acid writhing test, mice were injected i.p. with 0.9% acetic acid. They were then placed in a clear Plexiglas observation jar and the number of abdominal writhes recorded for 15 min (Mogil et al., Heritability of nociception I: responses of 11 inbred mouse strains on 12 measures of nociception. Pain 80:67-82,1999). Percent antinociception was calculated using the formula: % MPE (maximum possible effect)=100−((#writhes individual mouse/mean # writhes control group)×100).
# Control mice received a vehicle injection (5 μl distilled water, i.c.v., −24 hr).
smiles,measurement,setting,value
CN1CC[C@]23c4c5ccc(O)c4O[C@H]2[C@@H](O)C=C[C@H]3[C@H]1C5 [morphine],"agonist character in acetic acid writhing, i.c.v.",icv injection,full agonist effect
same,Tolerance Shift i.c.v.,"repeated/control A50, i.c.v., A90 dose ×2 daily, 3 days",12.5 fold
same,Tolerance Shift i.p.,"A90 dose ×2 daily, 3 days",approximately 2.2 fold
same,Tolerance Shift i.p.,"A90 dose ×2 daily, 3 days, listed as Morphine",2.17 fold
